These are yes or no findings as the source states them, for the method shown. For some of these results: In cells and extracts the contact can be indirect. Some binding calls cover weakened binding; strength is not graded here. Sequences can lack the tags named with a protein.

The target of one test is T1, BD-Chl1 (S. pombe) (UniProt O14147).
T1 sequence: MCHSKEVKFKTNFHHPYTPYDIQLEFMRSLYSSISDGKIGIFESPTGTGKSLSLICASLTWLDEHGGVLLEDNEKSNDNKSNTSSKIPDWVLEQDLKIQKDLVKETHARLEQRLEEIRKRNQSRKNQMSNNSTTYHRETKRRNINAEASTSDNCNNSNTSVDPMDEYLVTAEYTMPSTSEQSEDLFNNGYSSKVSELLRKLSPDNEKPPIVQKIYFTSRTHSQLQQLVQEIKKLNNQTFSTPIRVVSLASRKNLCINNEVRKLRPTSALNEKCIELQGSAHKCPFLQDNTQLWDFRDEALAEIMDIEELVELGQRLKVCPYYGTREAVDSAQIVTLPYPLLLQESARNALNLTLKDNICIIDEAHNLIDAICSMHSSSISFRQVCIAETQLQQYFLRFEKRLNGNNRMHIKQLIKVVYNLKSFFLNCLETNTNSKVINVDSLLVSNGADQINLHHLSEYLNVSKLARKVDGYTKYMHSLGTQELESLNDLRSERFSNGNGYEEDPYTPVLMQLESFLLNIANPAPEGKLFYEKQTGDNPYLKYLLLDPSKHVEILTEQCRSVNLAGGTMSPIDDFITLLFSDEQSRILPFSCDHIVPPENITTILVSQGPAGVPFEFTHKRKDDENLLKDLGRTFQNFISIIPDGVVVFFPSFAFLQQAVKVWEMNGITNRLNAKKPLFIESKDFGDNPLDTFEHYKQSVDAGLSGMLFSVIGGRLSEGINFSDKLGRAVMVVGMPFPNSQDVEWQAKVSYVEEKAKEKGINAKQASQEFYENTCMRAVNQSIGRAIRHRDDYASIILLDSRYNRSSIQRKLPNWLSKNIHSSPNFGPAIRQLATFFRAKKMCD
In words: two-hybrid; pGBKT7 and pGADT7 constructs cotransformed into yeast strain AH109; HIS3 and ADE2 reporters assessed on SD/-Ade/-His/-Leu/-Trp plates.

The next test concerns the target T2, Chl1-5xFlag (S. pombe) (UniProt O14147).
T2 sequence: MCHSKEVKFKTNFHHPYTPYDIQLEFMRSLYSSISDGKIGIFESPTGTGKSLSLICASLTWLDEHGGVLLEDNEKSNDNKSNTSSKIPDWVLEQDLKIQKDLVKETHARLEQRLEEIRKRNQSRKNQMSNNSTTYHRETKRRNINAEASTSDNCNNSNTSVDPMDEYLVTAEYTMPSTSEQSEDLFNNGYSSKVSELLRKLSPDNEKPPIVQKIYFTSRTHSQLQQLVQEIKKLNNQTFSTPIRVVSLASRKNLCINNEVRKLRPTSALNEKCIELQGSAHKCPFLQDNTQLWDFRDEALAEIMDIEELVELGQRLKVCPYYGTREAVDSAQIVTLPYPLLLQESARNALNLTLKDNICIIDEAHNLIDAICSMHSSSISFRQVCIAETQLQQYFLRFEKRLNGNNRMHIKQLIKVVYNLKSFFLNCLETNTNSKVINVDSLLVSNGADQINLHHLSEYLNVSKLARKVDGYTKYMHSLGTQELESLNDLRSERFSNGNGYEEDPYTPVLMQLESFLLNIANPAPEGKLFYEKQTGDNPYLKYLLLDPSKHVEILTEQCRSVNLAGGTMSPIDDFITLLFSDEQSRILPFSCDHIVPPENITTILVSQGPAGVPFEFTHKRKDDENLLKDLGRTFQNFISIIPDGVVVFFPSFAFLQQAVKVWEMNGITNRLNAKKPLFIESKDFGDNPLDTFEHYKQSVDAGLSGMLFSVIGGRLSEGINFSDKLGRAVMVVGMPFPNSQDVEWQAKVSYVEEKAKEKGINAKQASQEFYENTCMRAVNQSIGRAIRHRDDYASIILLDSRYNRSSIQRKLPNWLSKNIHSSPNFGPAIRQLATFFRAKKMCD
Put plainly: co-IP; cell extracts in 1x HC buffer (150 mM HEPES-KOH pH 7.5, 250 mM KCl), anti-Flag M2 agarose beads for 3 h, Western blot with anti-Flag and anti-MYC. For orientation: In western blotting, separated proteins are transferred to a membrane and probed.

B1: Eso1 (Eco1 homology) (protein, UniProt O42917 1-872)
chain: MELGKSKFSWKDLQYCDKAGTQNSPLRVVAHIDQDAFYAQVESVRLGLDHSVPLAVQQWQGLIAVNYAARAANISRHETVTEAKKKCPELCTAHVKTWKAGESEAKYHENPNPNYYKTCLDPYRHESVKILNIIKKHAPVVKKASIDECFIELTSDVKRIVLEEYPYLKIPSEDSNVALPQAPVLLWPAEFGMVIEEEVVDRTKEDYERDWDDVFLFYAAKIVKEIRDDIYLQLKYTCSAGVSFNPMLSKLVSSRNKPNKQTILTKNAIQDYLVSLKITDIRMLGGKFGEEIINLLGTDSIKDVWNMSMDFLIDKLGQTNGPLVWNLCHGIDNTEITTQVQIKSMLSAKNFSQQKVKSEEDAINWFQVFASDLRSRFLELEGMRRPKTICLTVVSRFLRKSRSSQIPMNVDISTQFIVEATSKLLRQLQQEFDVYPISNLSISFQNIIEVDRNSRGIEGFLKKSNDEIYMSTSVSPSIEGRAKLLNENMRENNSFELSSEKDIKSPKRLKRGKGKGIFDMLQQTAVSKPTENSADETYTCEECEQKITLSERNEHEDYHIALSISRKERYNNLVPPSHDKPKQVKPKTYGRKTGSKHYAPLSDETNNKRAFLDAFLGNGGNLTPNWKKQTPKAISNSSDNMTQLHLDLANSTVTCSECSMEYNSTSEEDILLHSRFHSRVLGGVTVSFQCSPIYRVNYGLSSDCIYSINSESSLIDQRKAEEALSFVNNELSSEPIETIGVDKYTTFLFISDKKCVGLLLAERISSAYIVDELELNNNNSTSSAVYIKNENLRKGFVLGISRIWVSASRRKQGIASLLLDNALKKFIYGYVISPAEVAFSQPSESGKQFIISWHRSRNNGSSKSLRYAVYES
In the case of B1, the binding entry with BD-Chl1 (S. pombe) was “no binding”.

B2: Rpc37-13xMyc (protein, UniProt O74883 1-242)
chain: MSFSEDQAMEEAKLRNDETEEQDPVVRTYPVFFSPGLRNNLLLNQFPLRPKNRTYSDANGEAPIDVRVKPKTGWMEVDVPIPTTKYYNEDKAMKYGNGKKPIQTQTLSGRLQKPRTNLMVGLIRDGQFHIVPLRGLTQLRPSMKHVNEYTQKLKAAAGPSNSSSGTSTPRGPIRAVQVTAKQNTEAPKVSTTHIVRATEEEEWVELDCRPERESESILKQLECPIEHQPNECAAVDEDYSFI
For the molecule B2, the binding entry in the test with Chl1-5xFlag (S. pombe) is listed as “binds”.

B3: AD-Rpc37 (protein, UniProt O74883 1-242)
chain: MSFSEDQAMEEAKLRNDETEEQDPVVRTYPVFFSPGLRNNLLLNQFPLRPKNRTYSDANGEAPIDVRVKPKTGWMEVDVPIPTTKYYNEDKAMKYGNGKKPIQTQTLSGRLQKPRTNLMVGLIRDGQFHIVPLRGLTQLRPSMKHVNEYTQKLKAAAGPSNSSSGTSTPRGPIRAVQVTAKQNTEAPKVSTTHIVRATEEEEWVELDCRPERESESILKQLECPIEHQPNECAAVDEDYSFI
Turning to B3, the binding entry with BD-Chl1 (S. pombe) was “binds”.

B4: Mcl1 (Ctf4 homology) (protein, UniProt Q9C107 1-815)
chain: MAGNRLVPRYAHTDGLTRLAYTRDGKFLLTVGSNQVIRKFQVGSDEEPDSIDNHQDPITGIAVAENYFCTCSEDATVCVYPIDSPTEHTLLARTTLPIRDVAYSVDGNWIAIASDETAVKVVSSTDSSQIFSLRPAKASNKHVTYSPNGNFLAVSSCNGILYFYDTQTRELIKFLTNTIASLEAESEICSKAAWHPKNGTFAVASTDHFVSVISPDDWLPLYKLLPKENHSGVTDISWSSNGMYIAASFKKGGILIWDTQSHEVVVELPYSTVVALAWQPFENVLSFTTNQGILYSCPDVIPKSILKEENDPTKPLTSSKSKNRTSKELDDLFGSDDEQSQNVNDLDGNSANEENEFINHDGLDSSLDLDGDSYMVDENDLNLAKKRKQKALIDRTTTIENGSSKRRLLQASIHKPVHTGSTPWQGNRRYLCLNLVGFIWTVQQDAEHNTITVEFHDETTHRKYHFVDDQKFEMACLDHEGALYASPATESSPGVIYYKAHVDWSRKSEWAMALPMENESPVTISLSSSVVLVCTSAGYVRVFSRQGFPISIHRSKHLPFVACSSFQDTIITIANDGLSSDGNSRLVYSIEDISRDEMLQTGDGVALPPQGTLESVFFSDVGDPYIYDSTGVLLVLMHWRIPGQAKWIPVLDTNELERRKSRQESYWPVTVADNQFHCILLKGASRYPYFPRPMFTEFDFRIPCNTNNPDASTSVPVLEELQLRNKLFLTLLEDSIGDGDVTEDEKISIARLEANIDKALLQLIQKACLEERIERVYELTKTLRRTTSIAAAQKIALHHSLTNVAEKIGNLLSNV
Consider B4, for which the binding entry with BD-Chl1 (S. pombe) is given as “no binding”.

The values are drawn from article PMC9224301.
